In US20040077689A1, “Abc expression promoters” (priority 2001, published 2004):
Counter-ions that a name gives are not always drawn. At least one structure is not confirmed: it was looked up by name or label, or the drawing left a doubt.

Tested on: human monocyte-derived THP-1 cells
Experiment: Foaming-suppressant activity in human monocyte-derived cells (intracellular lipid content)
Type: cell-based
Details: conclusion based on the decrease in the amount of cholesteryl ester, 1 μM
Description: In a RPMI1640 medium containing a test compound (1 μM), PMA (phorbol 12-myristate 13-acetate, 400 ng/ml) and 10% fetal bovine serum was suspended human monocyte-derived THP-1 cells (purchased from Dainippon Pharmaceutical Co., Ltd.). The obtained suspension was dispensed into a 12-well plate (7.2×10^5 cells) and was cultured for 3 days. The obtained cell was further cultured in a RPMI1640 medium containing the test compound and 0.2 mM oleic acid-0.2% bovine serum albumin complex and rabbit β-VLDL (200 μg cholesterol/mL) for 2 days, and then the total lipids in the cells were extracted with a mixed solution of n-hexane/isopropanol (3:2). The amounts of the total cholesterol (TC) and free cholesterol (FC) in the extract were measured with a enzyme method [using Cholesterol E-Test Wako (trade name, Wako Pure Chemical Industries, Ltd.)], and the amount of cholesteryl ester (CE) was calculated by the difference between the two cholesterol amounts. The intracellular lipid content was then evaluated by dividing the amounts of these lipids by the amount of cell protein (measured using BCA assay kit (Pierce)). In the Table, TC represents total cholesterol, FC represents free cholesterol and CE represents cholesteryl ester.

SMILES: CCc1ccc(CCOc2ccc(CC3SC(=O)NC3=O)cc2)nc1 (stereo not shown) [Pioglitazone hydrochloride]
- foaming-suppressant activity: have foaming-suppressant activity
